Measurements: publication PMC6956804, “Potent antibacterial activity of MSI-1 derived from the magainin 2 peptide against drug-resistant bacteria” (Theranostics, 2020)
Peptide text beside a SMILES is read from it.

Test: CD assay, secondary structure
Assay type: physicochemical
Conditions: peptide 0.1 mg/ml, 37 °C

Compound: CC[C@H](C)[C@H](NC(=O)CN)C(=O)N[C@@H](Cc1c[nH]c2ccccc12)C(=O)N[C@@H](CCCCN)C(=O)N[C@@H](Cc1ccccc1)C(=O)N[C@@H](CC(C)C)C(=O)N[C@@H](CCCCN)C(=O)N[C@@H](CCCCN)C(=O)N[C@@H](C)C(=O)N[C@@H](CCCCN)C(=O)N[C@@H](CCCCN)C(=O)N[C@@H](Cc1ccccc1)C(=O)N[C@@H](Cc1c[nH]c2ccccc12)C(=O)N[C@@H](CCCCN)C(N)=O [MSI-1] (H-GIWKFLKKAKKFWK-NH2)
- α-helical content (LPS 50 μM): 31.4%
- α-helical content (MLVs 500 μM (0.2 DPPG/DPPE + DPPG molar ratio)): 34.2%
- α-helical content (SDS 50 mM): 97.5%
